Results published in PMC11354204, “Lactylation stabilizes TFEB to elevate autophagy and lysosomal activity” (The Journal of Cell Biology, 2024).
These are yes or no findings as the source states them, for the method shown. In cells and extracts the contact can be indirect. These calls come from enrichment with a bait or labelling near it, and not all partners need be listed.

Sequences of proteins named here, by UniProt entry; tags and fusion partners are left off.
UniProt P19484: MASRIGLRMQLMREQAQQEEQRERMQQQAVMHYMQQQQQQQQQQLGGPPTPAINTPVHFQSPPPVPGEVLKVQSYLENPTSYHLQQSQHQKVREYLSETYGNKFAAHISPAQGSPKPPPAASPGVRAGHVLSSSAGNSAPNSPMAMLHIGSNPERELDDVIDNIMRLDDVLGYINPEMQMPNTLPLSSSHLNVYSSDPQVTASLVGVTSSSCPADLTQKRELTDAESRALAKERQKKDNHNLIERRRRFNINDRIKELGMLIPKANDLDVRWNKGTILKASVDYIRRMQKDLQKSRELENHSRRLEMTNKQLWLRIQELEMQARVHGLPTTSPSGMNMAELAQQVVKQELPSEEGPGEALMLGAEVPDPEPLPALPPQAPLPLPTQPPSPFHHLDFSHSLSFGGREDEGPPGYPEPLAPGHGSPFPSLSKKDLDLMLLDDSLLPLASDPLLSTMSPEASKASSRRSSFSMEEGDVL
UniProt Q9UNE7: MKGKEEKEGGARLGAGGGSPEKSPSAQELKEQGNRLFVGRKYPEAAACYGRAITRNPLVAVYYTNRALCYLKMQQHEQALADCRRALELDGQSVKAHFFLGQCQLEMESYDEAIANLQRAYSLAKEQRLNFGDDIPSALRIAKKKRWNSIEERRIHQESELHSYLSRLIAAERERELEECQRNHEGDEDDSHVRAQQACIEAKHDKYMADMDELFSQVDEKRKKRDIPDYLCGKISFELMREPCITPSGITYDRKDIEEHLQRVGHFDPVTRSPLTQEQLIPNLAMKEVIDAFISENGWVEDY

Target: TFEB-Flag (human) (UniProt P19484)
Assay: affinity purification with mass spectrometry; TFEB-Flag immunoprecipitated with anti-Flag beads from HEK293T cells; on-bead trypsin digestion, HPLC-MS/MS

STUB1 (endogenous) (from UniProt Q9UNE7 1-303)
binding: binds
